Reference: publication PMC9616960

T1: Neph1 (not stated (endogenous in glomeruli of rat or mouse)) (UniProt Q6X936)
T1 sequence: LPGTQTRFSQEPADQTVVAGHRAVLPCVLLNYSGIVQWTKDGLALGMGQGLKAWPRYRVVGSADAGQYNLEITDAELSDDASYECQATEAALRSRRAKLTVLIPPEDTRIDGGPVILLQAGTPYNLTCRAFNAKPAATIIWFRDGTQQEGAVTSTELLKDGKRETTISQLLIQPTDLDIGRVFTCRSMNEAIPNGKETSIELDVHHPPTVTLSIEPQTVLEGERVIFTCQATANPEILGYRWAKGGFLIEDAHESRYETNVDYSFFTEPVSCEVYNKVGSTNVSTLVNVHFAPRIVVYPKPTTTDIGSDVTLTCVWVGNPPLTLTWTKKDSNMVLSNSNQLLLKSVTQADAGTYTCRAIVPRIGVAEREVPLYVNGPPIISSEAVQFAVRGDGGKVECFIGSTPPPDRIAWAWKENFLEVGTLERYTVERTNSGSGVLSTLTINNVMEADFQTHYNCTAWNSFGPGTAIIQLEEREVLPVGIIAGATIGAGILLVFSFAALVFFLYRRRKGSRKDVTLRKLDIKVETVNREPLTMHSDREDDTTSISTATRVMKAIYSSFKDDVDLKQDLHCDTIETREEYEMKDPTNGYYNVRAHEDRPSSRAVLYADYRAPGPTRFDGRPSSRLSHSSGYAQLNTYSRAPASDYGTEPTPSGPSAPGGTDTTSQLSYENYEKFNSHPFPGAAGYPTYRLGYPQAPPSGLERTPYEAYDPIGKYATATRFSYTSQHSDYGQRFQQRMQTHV

T2: Nephrin (not stated (endogenous in glomeruli of rat or mouse)) (UniProt Q9R044)
T2 sequence: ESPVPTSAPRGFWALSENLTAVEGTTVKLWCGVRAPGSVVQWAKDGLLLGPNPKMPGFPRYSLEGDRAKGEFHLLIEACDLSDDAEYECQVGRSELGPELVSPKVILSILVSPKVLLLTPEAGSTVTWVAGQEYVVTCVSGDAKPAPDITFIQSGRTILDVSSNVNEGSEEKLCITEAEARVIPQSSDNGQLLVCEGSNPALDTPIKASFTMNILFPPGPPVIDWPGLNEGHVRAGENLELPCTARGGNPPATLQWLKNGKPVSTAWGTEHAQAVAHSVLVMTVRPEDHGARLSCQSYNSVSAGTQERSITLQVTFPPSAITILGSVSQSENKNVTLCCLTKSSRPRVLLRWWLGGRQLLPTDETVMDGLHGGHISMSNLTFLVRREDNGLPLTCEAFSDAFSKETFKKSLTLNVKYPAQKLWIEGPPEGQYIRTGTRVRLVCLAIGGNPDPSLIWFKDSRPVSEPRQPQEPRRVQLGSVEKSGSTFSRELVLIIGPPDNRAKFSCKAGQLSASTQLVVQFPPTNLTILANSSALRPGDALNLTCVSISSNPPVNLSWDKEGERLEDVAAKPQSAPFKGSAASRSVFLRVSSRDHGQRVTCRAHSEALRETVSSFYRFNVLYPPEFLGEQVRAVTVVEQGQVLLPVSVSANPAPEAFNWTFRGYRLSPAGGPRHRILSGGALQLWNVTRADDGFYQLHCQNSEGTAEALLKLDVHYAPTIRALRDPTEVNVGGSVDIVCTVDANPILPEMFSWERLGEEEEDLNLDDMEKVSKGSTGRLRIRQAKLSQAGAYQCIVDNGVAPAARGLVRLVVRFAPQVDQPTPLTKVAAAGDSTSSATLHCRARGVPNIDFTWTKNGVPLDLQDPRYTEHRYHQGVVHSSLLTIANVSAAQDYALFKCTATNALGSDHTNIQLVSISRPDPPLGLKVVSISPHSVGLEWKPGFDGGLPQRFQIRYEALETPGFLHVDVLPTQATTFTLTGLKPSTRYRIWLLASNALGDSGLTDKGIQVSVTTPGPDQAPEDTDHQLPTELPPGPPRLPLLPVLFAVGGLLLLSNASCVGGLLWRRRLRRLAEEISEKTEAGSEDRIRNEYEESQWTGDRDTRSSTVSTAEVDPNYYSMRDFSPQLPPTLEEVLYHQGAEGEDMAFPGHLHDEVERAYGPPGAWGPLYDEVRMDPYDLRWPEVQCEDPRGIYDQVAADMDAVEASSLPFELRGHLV

B1: Lipolysis-stimulated lipoprotein receptor (protein, UniProt Q9WU74 36-593)
chain: AIQVTVSDPYHVVILFQPVTLPCTYQMSNTLTVPIVIWKYKSFCRDRIADAFSPASVDNQLNAQLAAGNPGYNPYVECQDSVRTVRVVATKQGNAVTLGDYYQGRRITITGNADLTFEQTAWGDSGVYYCSVVSAQDLDGNNEAYAELIVLGRTSEAPELLPGFRAGPLEDWLFVVVVCLASLLLFLLLGICWCQCCPHTCCCYVRCPCCPDKCCCPEALYAAGKAATSGVPSIYAPSIYTHLSPAKTPPPPPAMIPMGPPYGYPGDFDRHSSVGGHSSQVPLLRDVDGSVSSEVRSGYRIQANQQDDSMRVLYYMEKELANFDPSRPGPPNGRVERAMSEVTSLHEDDWRSRPSRAPALTPIRDEEWNRHSPQSPRTWEQEPLQEQPRGGWGSGRPRARSVDALDDINRPGSTESGRSSPPSSGRRGRAYAPPRSRSRDDLYDPDDPRDLPHSRDPHYYDDIRSRDPRADPRSRQRSRDPRDAGFRSRDPQYDGRLLEEALKKKGSGERRRVYREEEEEEEGQYPPAPPPYSETDSQASRERRLKKNLALSRESLVV
B2: Integral membrane protein 2B (protein, UniProt Q5XIE8 1-266)
chain: MVKVTFNSALAQKEAKKDEPKSSEEALIAPPDAVAVDCKDPDDVVPVGQRRAWCWCMCFGLAFMLAGVILGGAYLYKYFALQPDDVYYCGLKYIKDDVILSEPSADAPAARYQTIEENIKIFEEDAVEFISVPVPEFADSDPANIVHDFNKKLTAYLDLNLDKCYVIPLNTSIVMPPRNLLELLINIKAGTYLPQSYLIHEHMVITDRIENVDHLGFFIYRLCHDKETYKLQRRETIRGIQKREASNCFTIRHFENKFAVETLICS
B3: Claudin-15 (protein, UniProt D3ZQJ0 1-227)
chain: MSIAVETFGFFMSALGLLMLGVTLPNSYWRVSTVHGNVITTNTIFENLWYSCATDSLGVSNCWDFPSMLALSGYVQGCRALMITAILLGFLGLFLGMVGLRCTNVGNIDLSRKAKLLAIAGAFHILAGACGMVAISWYAVNITTDFFNPLYVGTKYELGSALYLGWSASLLSILGGICVFSTCCCDSKEDPATRVGLPYKPSTVVTARATSDESDVSFGKYGKNAYV
B4: Basal cell adhesion molecule (protein, UniProt Q9ESS6 26-624)
chain: ELHVSVPPRVEVMRGEQIALDCTPREHPENYVLEWLLVDASGARHRLASVEPQGSEFLGTIHNSRGRRPPYKIDSLGRLVIAEAQVGDERDYVCVVKAGAAGTSEATSSVRVFATPEATEVAPNKGTLSVMEQFAQEIATCSSNNGNPVPRITWYQNGQRLDVPMELNSKGYMTSRTVREASGLYSLTSTLYLRLHKEDRDASFHCAAHYDLPSGQHGRLDSHTFRLTLHYPTEHVEFWVGSPSTTEGWVREGDAVQLLCQGDGSPSPEYSFFREQGNQEEQLNVNLKGNLTLEGVHRSQSGIYGCRVEDYDADEEVQLVKKLKLHVAYLDPLELSVPEEFSVFLNSSGTVVNCSARGLPAPIVRWTKDSVTVADGPILSLDSVTFDSAGTYTCEASTPTVPLLSRTQSFQLVVQGAPELKPNEIKPKSGTSWTEGDEVMLTCSARGFPEPKLTWSQRGDTTPAEPPFEGRGWMSSSLTLKVTSALSREGVSCEASNIHGKNGHVFHFGSVAPQTAQAGVAVMAVAVSVGLLLLVVAAFYCMRRKGRPGCCQRAEKGAPPAREPELSHSGSERPEHTGLLMGGPSGGGRGGNGGFGDEC
B5: Choline transporter-like protein 2 (protein, UniProt B4F795 1-705)
chain: MGKDSQHYYGKHGTPQKYDPTFKGPIYNRGCTDIICCVLLFLAIVGYVAVGIIAWTHGDPRKVIYPTDSRGEFCGQKGTKNADKPFLFYFNIVKCASPLVLLEFHCPTPQICVKQCPDRYLTFLSARNSRDFDYYKQFCVPGFKNNKGVAEVLRDGECPAVIIPSKPLAQRCFPAIHASKGVLMVGNETTYEDGHGTRKNVTDLVEGAKKANKVLEARQLAMQIFEDYTVSWYWIVIGLVIAMLLSLMFIVLLRFLAGVMVWVMIVMVILVLGYGIFHCYAEYSRLRGEAGSDVSLVDLGFQTDLRVYLHLRQTWMAFMIILSILEVVIILLLIFLRKRILIAIALIKEASRAVGHVMCSMLYPLVTFFLLCLCIAYWASTSVFLSTSNVAVYKIVDDTPCPLLGKTCNPETFPLNESRQCPNGRCQFAFYGGESTYHRALLGLQIFNAFMFFWLANFVLALGQVTLAGAFASYYWAMRKPDDMPAFPLFSAFGRALRYHTGSLAFGSLILAIVQIIRVMLEYLDQRLKAAQNKFAKFLMVCLKCCFWCLEKFIKFLNRNAYIMIAIYGTNFCTSARNAFFLLMRNIIRVAVLDKVTDFLFLLGKLLIVGSVGILAFFFFTHRIRIVQDTAPPLNYYWVPILTVIIGSYLIAHGFFSVYGMCVDTLFLCFLEDLERNDGSAERPYFMSSTLKKLLNKTNKKVAES
B6: atrial natriuretic peptide-receptor C (protein, UniProt P41740 41-535)
chain: EALAAQKIEVLVLLPRDDSYLFSLARVRPAIEYALRSVEGNGTGRKLLPPGTRFQVAYEDSDCGNRALFSLVDRVAAARGAKPDLILGPVCEYAAAPVARLASHWDLPMLSAGALAAGFQHKDTEYSHLTRVAPAYAKMGEMMLALFRHHHWSRAALLYSDDKLERNCYFTLEGVHEVFQEEGLHTSAYNFDETKDLDLDDIVRYIQGSERVVIMCASGDTIRRIMLAVHRHGMTSGDYAFFNIELFNSSSYGDGSWKRGDKHDFEAKQAYSSLQTVTLLRTAKPEFEKFSMEVKSSVEKQGLNEEDYVNMFVEGFHDAILLYVLALHEVLRAGYSKKDGGKIIQQTWNRTFEGIAGQVSIDANGDRYGDFSVVAMTDTEAGTQEVIGDYFGKEGRFKMRSNVKYPWGSLKLRIDETRIVEHTNSSPCKSCGLEESAVTGIVVGALLGAGLLMAFYFFRKKYRITIERRNHQEESNIGKHRELREDSIRSHFSVA
B7: Dendrin (protein, UniProt P50617 1-707)
chain: MLDGPLFSEGPDSPRELQDEESGSCLWVQKSKLLVIEVKTISCHYSRRAASRQSMDIQASYWARGPQNRTCRLRPGSPEPPPRRPWASRVLQEATNWRAGPPAEVRAREQEKRKAASQEREAKETERKRRKAGGARRSPLGQPRPELRNALRAAQPTGFPVFSRPERFGQVGRAPRPSALPQGDPGVAWAGPWGGRRPGPPSYEAHLLLRGAAGTAPRRRWDRPPPYVAPPSYEGPHRTLGTKRGPELSRAPTSSAPVPATTRTEGGRTKKRLDPRIYRDVLGAWGLRQGRGLLGGAPGCAAARARPESCKGAVEKSSGLAAAGLNSGGDGHSQAKTTGPVTEVALSGSTISSPPRPVPRSRQHLRGSRKGKEGSEEMWLPTCWLSSPKKPPVRHSQTLPRPWAPGGTGWKESLGQREGTEHETLEVWKVTRRAHTLPRSSRGPAGREGIFVIDATCVVIKSQYVPTPRTQQRQLAPSGESCIVSDSLRQPKPCLEEEGKGAAANPSVCQKRLLSSRVLNPPSEGREFEAEGRQQGDSSLEERSSSGLGFPVGEVNPRDAPTHPGSPEHSTLGPAAPGCAGSVKGPEAAGVPRRAGGGWARTPGPYAGALREAVSRIRRHTAPDSDSDEAEDLSAHSGSSDGSDTDAPGASWRNERTLPAVGNTRPREGGKTAELGDSIGEILDVISQTEEGLVREDTRKTPQGKRE

target: T1, Neph1 (not stated (endogenous in glomeruli of rat or mouse)); experiment: affinity purification with mass spectrometry; three anti-Nephrin/Neph1 ABs immobilised on magnetic beads, two hours with CL-47 or CL-91 solubilisates of glomerular membrane fractions; eluates by nano-LC-MS/MS; specific: tnR >=0.2 against three target-unrelated ABs/IgG, in at least two anti-Nephrin/Neph1 APs

binding, binds:
B1
B2
B3
B4
B5
B6
B7

target: T2, Nephrin (not stated (endogenous in glomeruli of rat or mouse)); experiment: as above

binding, binds:
B1
B2
B3
B4
B5
B6
B7

No constants are given. Whether binding was seen depends on the method and setting. Binding seen in cells or lysates may run through a third protein. A yes stands for co-enrichment or nearness to the bait. Other partners may have been found.
